From PubChem BioAssay AID1662 (Broad Institute, 2009)
In all, about 300,000 compounds went through this assay and about 4,000 (1.3%) were called active. Inconclusive results, whose numbers are uncertain, are shown with a selection of clear calls.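 Rule for the calls: active = mean replicate score, as percent of positive control median, at least 50; inconclusive = mean below 50 but one replicate at or above 50; inactive = mean and every replicate below 50.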

Assay: kanamycin survival loss of SKKanGAS strain – BacTiter-Glo luminescence, streptokinase expression inhibitor project, primary screen (AID 1662);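 note: strain carries kanamycin resistance gene driven by streptokinase promoter and grows in 40 µg/ml kanamycin; loss of luminescence reflects streptokinase promoter inhibition or plain growth inhibition; 0% = median of DMSO wells and 100% = positive control at its reference dose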
Conditions: S. pyogenes SKKanGAS, kanamycin growth, 6 h, at 7.5 µM, active compounds read high

Row | Compound | inhibition
1 | Cc1ccc(Cn2nnc3c(=O)[nH]c(C4CCN(S(=O)(=O)c5cc(C)ccc5C)CC4)nc32)cc1 | inconclusive: 48.5%
2 | CCn1c(SCC(=O)Nc2oc(-c3ccccc3)c(-c3ccccc3)c2C#N)nnc1-c1ccco1 | inconclusive: 43.2%
3 | CCC[N+]1(CC#CCC(c2ccccc2)c2ccccc2)CCCCC1 | inactive: -1.05%
4 | Cc1cc(S(=O)(=O)NCCC2=CCCCC2)ccc1Br | inconclusive: 40.4%
5 | COc1ccc(NC2=NCC(Cc3ccc(Br)cc3)S2)cc1 (configuration not stated) | inconclusive: 47.2%
6 | N=c1ccn2c(n1)O[C@H]1[C@H](O)[C@@H](CO)O[C@H]12 | inconclusive: 46.1%
7 | CCCCNC(=O)c1onc(CSc2ccc(C(C)C)cc2)c1C(=O)O | inconclusive: 47.9%
8 | Cc1ccc(C(=O)N2CCCC(CCC(=O)NCc3ccccc3F)C2)cn1 (configuration not stated) | inconclusive: 48.1%
9 | COc1ccc(NC(=O)c2cc3cccc(OC)c3oc2=Nc2ccc(C(=O)O)cc2)cc1OC | inconclusive: 47.6%
10 | Cc1ccc(-c2csc3ncnc(NS(=O)(=O)c4ccc(Cl)cc4)c23)cc1 | inconclusive: 48.2%
11 | CC(=O)N1CCN(c2ccccc2NC(=O)c2cccs2)CC1 | inconclusive: 48.3%
12 | Clc1ccc(CSc2nccn2Cc2ccccc2)cc1 | inconclusive: 47.3%
13 | Cc1ccc2[nH]c(=O)c3cc(C(=O)N(CCCOC(C)C)Cc4ccco4)sc3c2c1 | inactive: 16.5%
14 | COc1cc(C=C2C(=O)OC(C)(C)OC2=O)cc(Cl)c1OCC(=O)Nc1ccccc1 | inactive: -14.6%
15 | CCCCCC(=O)Cc1cc(O)cc2c1C(=O)Oc1cc(O)c(C(=O)O)c(CCCCC)c1O2 | active: 71.3%
16 | Cc1ccc(C(=O)N2CCOCC2)cc1S(=O)(=O)N1CCOCC1 | active: 51%
17 | Cc1cc(C(=O)COC(=O)c2ccc3c(c2)OCO3)c(C)n1Cc1cccs1 | inactive: 17.3%
18 | O=c1n(Cc2ccccc2F)c2ccccc2n1Cc1ccccc1F | inconclusive: 48.6%
19 | COCCn1c(SCc2nc3sc(C(=O)OC)c(C)c3c(=O)[nH]2)nc2ccccc21 | inconclusive: 29.6%

Row | Compound | inhibition
20 | CN1CCN(C(=O)C(=O)c2cn(CC(=O)N3CCCC3)c3ccccc23)CC1 | inconclusive: 46.3%
21 | CCC(C(=O)NCCCN1CCCC1=O)n1c2ccccc2c2nc(=O)cc(C)n21 (configuration not stated) | inconclusive: 42.5%
22 | O=C(NC(c1ccccc1)c1ccccc1)c1ccc(=O)[nH]n1 | inactive: -2.99%
23 | CC(Oc1ccc(Cl)cc1Cl)C(=O)Nc1ccc2oc(-c3ccncc3)nc2c1 (configuration not stated) | active: 51.3%
24 | CC(=O)c1ccc(NC(=O)CN2C(=O)/C(=C/C=C/c3ccccc3)SC2=S)cc1 | inconclusive: 48.3%
25 | CN(C(=S)NC(=O)c1ccccc1)C1CCCCC1 | inconclusive: 48%
26 | CC(C)CC(NC(=O)c1ccccc1)C(=O)OCC(=O)Nc1ccc(S(N)(=O)=O)cc1 (configuration not stated) | inactive: -7.5%
27 | CCOC(=O)c1c(S(=O)(=O)N2CCCCCC2)c(C)n(C)c1C | inconclusive: 33.3%
28 | Cc1ccc(CN2CN(S(=O)(=O)c3cccs3)c3nc4ccccc4nc32)cc1 | inconclusive: 48.9%
29 | COc1ccc(C(=O)NC2CCCCCC2)cc1S(=O)(=O)N1CCOCC1 | inconclusive: 41.1%
30 | Cc1nc(SCC(=O)NNC(=O)c2cccs2)[nH]c(=O)c1C | inactive: 0.62%
31 | ON/C=N/C(=S)Nc1ncc(C(F)(F)F)cc1Cl | inactive: 0.867%
32 | CCOC(=O)c1nnn(-c2nonc2-n2cccc2)c1CN1CCC(C)CC1 | inconclusive: 41%
33 | NC(=O)c1cc(C(=O)c2ccccc2Cl)c[nH]1 | inactive: 2.27%
34 | CCCCNc1nc(-c2ccccc2)cc(C(F)(F)F)c1C(N)=O | inactive: 5.96%
35 | Cc1cc(C)c2nc(-c3ccncc3)cc(C(=O)N3CCN(Cc4ccccc4Cl)CC3)c2c1 | active: 74.3%
36 | Cc1cccc(N/C(N)=N/c2nc(C(F)(F)F)cc(C(F)(F)F)n2)c1 | inconclusive: 36.2%
37 | C/C(=N\NC(=S)NCC(C)(C)C)c1cc(F)cc(F)c1O | active: 90.2%
38 | C=CCN1C(=O)/C(=C2/Sc3ccc(OC)cc3N2C)SC1=Nc1cccc(O)c1 | inactive: 0.0517%

A draw from above in order of length of the SMILES, smallest number first.
Row | Compound | inhibition
25 | CN(C(=S)NC(=O)c1ccccc1)C1CCCCC1 | inconclusive: 48%
31 | ON/C=N/C(=S)Nc1ncc(C(F)(F)F)cc1Cl | inactive: 0.867%
37 | C/C(=N\NC(=S)NCC(C)(C)C)c1cc(F)cc(F)c1O | active: 90.2%
34 | CCCCNc1nc(-c2ccccc2)cc(C(F)(F)F)c1C(N)=O | inactive: 5.96%
26 | CC(C)CC(NC(=O)c1ccccc1)C(=O)OCC(=O)Nc1ccc(S(N)(=O)=O)cc1 (configuration not stated) | inactive: -7.5%

Going on with the list.

Row | Compound | inhibition
39 | O=C(CSc1nc2ccccc2c(=O)n1NC(=O)c1ccccc1)c1ccc(Cl)cc1 | inconclusive: 43%
40 | COc1ccc(C2CC(c3cccs3)=NN2C(=O)c2ccc(Br)o2)cc1 (configuration not stated) | inconclusive: 47.2%
41 | Cc1nc2c(-c3ccc(Cl)cc3)c(C)[nH]n2c(=O)c1Cc1ccccc1 | active: 98.9%
42 | Cc1ccc(C(=O)n2c(N)nc3ccccc32)cc1 | inconclusive: 37%
43 | COc1ccc(NC(=O)COc2coc(CN3CCN(c4ccccc4)CC3)cc2=O)cc1 | inactive: -6.09%
44 | C=CCn1c(=O)c2c3c(sc2n2c(Nc4ccc(C(=O)OCC)cc4)nnc12)CCCC3 | inconclusive: 28.2%
45 | Cc1ccc(C(=O)NC2CCCC2)s1 | inconclusive: 36.8%
46 | Fc1ccc2c(c1)C1C=CCC1C(c1cc3c(cc1Br)OCO3)N2 (configuration not stated) | active: 73.1%
47 | Cc1cccc(NC(=O)c2ccc(S(=O)(=O)N(C)CC3CCCO3)cc2)c1C (configuration not stated) | inconclusive: 48%
48 | CCCCNc1c(-c2ccc(OC)c(Sc3ccc(OC)cc3)c2)nc2ccccn12 | inconclusive: 48.9%
49 | Cn1ncc2c(Nc3ccc(Cl)c(Cl)c3)ncnc21 | inconclusive: 25.9%
50 | COc1ccccc1-c1nnc(NC(=O)CCS(=O)(=O)c2ccccc2)o1 | inconclusive: 44.5%
51 | O=C(NC(=S)NCCC1=CCCCC1)c1ccccc1Br | inconclusive: 47.5%
52 | Cn1cccc1C(=O)C(=O)Nc1ccc(F)c(F)c1 | inactive: 15.3%
53 | CCCN1CCc2c(sc3nc(SC)n(-c4ccccc4)c(=O)c23)C1 | inactive: 17.6%
54 | COc1cccc(NC(=O)NCCCCc2ccccc2)c1 | inconclusive: 40.9%
55 | CCc1ccc(C2NC(=O)c3ccccc3O2)cc1 (configuration not stated) | inconclusive: 47.3%
56 | COc1ccccc1CN(C)C(=O)C(NC(=O)Cc1cccc2ccccc12)C(C)C (configuration not stated) | inactive: -2.56%
57 | O=C(CC(Sc1ccc(Br)cc1)C(=O)O)c1ccc(Br)cc1 (configuration not stated) | inconclusive: 40.8%
